Reference: US20110319600A1
Results are given in words; binding and its absence hold for the method and conditions named. For some of these results: A result given as binding can be weak or reduced; the word gives no strength.

Assays:
[1] = molecular target: hemagglutinin (HA) of human influenza B virus, B/Malaysia/2506/04 strain (human influenza B virus, B/Malaysia/2506/04 strain); test: ELISA; purified HA antigen of the strain on plate; hybridoma culture supernatant
[2] = molecular target: hemagglutinin (HA) of human influenza A virus subtype H3N2, A/New York/55/04 strain (human influenza A virus subtype H3N2, A/New York/55/04 strain); test: PAP immunostaining of ethanol-fixed infected MDCK cells
[3] = molecular target: hemagglutinin (HA) of human influenza A virus subtype H3N2, A/Guizhou/54/89 strain (human influenza A virus subtype H3N2, A/Guizhou/54/89 strain); test: as above
[4] = molecular target: hemagglutinin (HA) of human influenza A virus subtype H3N2, A/Wyoming/3/03 strain (human influenza A virus subtype H3N2, A/Wyoming/3/03 strain); test: as above

| Binder | binding [1] | binding [2] | binding [3] | binding [4] |
| --- | --- | --- | --- | --- |
| D-1 monoclonal antibody (antibody, V domains shown) VH: QVQLVQSGSELKKPGASVKVSCKASGYTFTSYSIYWVRQAPGQGLEWMGWINTNTGNPSYAQGFTGRFVFSFDTSVSTAYLEISSLKAEDTAVYYCAREGDYDILTGYYYYFDYWGQGTLVTVSS VL: QTVVTQEPSFSVSPGGTVTLTCGLSSGSVSPSYYASWYQQTPGQAPRTLIYNTNTRSSGVPDRFSGSFLGSDAALTITGAQADDESDYFCVLYMPSGDWVFGGGTKLTVL | no binding |  |  |  |
| B-1 monoclonal antibody (antibody, V domains shown) VH: EENLLQSGGGLVQPGGSLRLSCAGSGFTFSTYAMTWVRQAPGQGLEWVSSISGSGEISYYADSVKGLFTISRDNSKDTVFLQMTSLRAEDTAVYYCAKSDVWEGYRPSKDALHMWGQGTMVTVSS VL: DVQMTQSPSSLSASVGDRVTITCRASQSVSNYVNWYQQKPGRAPRLLISSASNLWAGVPPRFSGRGEETDFTLTITSLQPEDSAVYYCQQSYSDLLSFGGGTKVEIK |  | binds | binds | binds |
